# Results of single-concentration screens

A: 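Growth of Mycobacterium tuberculosis over 4 days (cholesterol / DPPC medium with tyloxapol); the read-out is not stated. Compounds at 50 µM. Direction is inferred from retests: higher values go with more growth inhibition. Of about 69,000 compounds tested this way, about 370 (0.54%) reached 50% or more in at least one test.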
B: 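Phenotypic screen: M. tuberculosis growth, glucose 7H9 medium, 3 days; the read-out is not stated. Tested at 50 µM. Higher reads as more growth inhibition (inferred: compounds with an IC50 in retests scored well above the rest). Size under these conditions: about 69,000 compounds, about 760 of them at 50% or above in at least one test.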

Values are the deposited “Percent Effect”, in %. How 0% and 100% were set is not recorded. Most values in the screen are low, and negative values occur. This is an unselected part of the compounds tested. Two or more numbers in one place are separate tests of the same structure; such repeats can differ widely.

* [H][C@]12CN(CC=C(C)C)C[C@@]1(C(=O)O)CN(C(=O)c1cnccc1C)C2 | A: 0.04553%; B: 10.08%
* Cc1nn(C)c(C)c1C1CCCN1Cc1nc2ccccc2n1C (centres undefined) | A: -10.65%; B: 2.771%
* CCN(Cc1noc(C)n1)C(=O)C(c1ccc(C)cc1)N(C)C (centres undefined) | A: -8.548%; B: 0.6293%
* CN1CCC(C(=O)N2CCN(Cc3cccc(Cl)c3)CC2)CC1=O (centres undefined) | A: 4.979%; B: 7.753%
* Cl.c1ccc(CNc2cc(C3CCCNC3)ccn2)nc1 (centres undefined) | A: -6.115% & -32.31%; B: -45.83%
* CN(C)c1ccc(CC2CCN(c3cnccn3)C2)nn1 (centres undefined) | A: 14.22%; B: 20.33%
* CC(C)Oc1ncnc2c1CCN(c1cc(C(F)(F)F)ncn1)CC2 | A: -7.773%; B: 4.22% & 7.536%
* OC1(CNc2cccc(F)c2)CCNCC1 | A: -7.354%; B: 3.742% & 6.078%
* CC1(C(N)=O)CN(CC2CCC2)CCO1 (centres undefined) | A: 1.159% & 4.039%; B: -8.78%
* CN(C)CCNC(=O)c1sccc1N(C)S(=O)(=O)c1ccc(Cl)cc1 | A: -33.36%; B: -9.455%
* COc1ccc(S(=O)(=O)C(C)C(=O)NCCOc2cccc(C)c2)cc1 (centres undefined) | A: 8.964%; B: -3.674% & 5.739%
* CC1CN(C)CCN1C(=O)COc1cccc(Oc2ccccn2)c1 (centres undefined) | A: 17.19%; B: -18.33%
* CCN(Cc1ccoc1)C(=O)c1cc(S(N)(=O)=O)c(C)o1 | A: 9.061%; B: 12.67%
* COCCCC1(CO)CCCN(C(=O)c2cnc3c(c2)CCCC3)C1 (centres undefined) | A: -8.13%; B: -10.84% & -0.4893%
* C[C@@H]1CN(C2CCCCC2)CC[C@@]1(O)C1CCOCC1 | A: -2.309%; B: 16.55%
* COc1cc(F)c(C(=O)NCc2ccon2)c(F)c1 | A: 1.502%; B: -13.23%
* CC(C)C(=O)NS(=O)(=O)c1ccc(C#N)cc1C(F)(F)F | A: 9.768%; B: -17.94% & -5.177%
* COc1ccc(CN(CC2CCCO2)C(=O)CN2CCOC2=O)cc1 (centres undefined) | A: 5.856%; B: 11.63%
* Cc1ccc(-c2n[nH]cc2CNCCn2cccn2)o1 | A: 0.2006%; B: 26.05%
* O=C(O)C(F)(F)F.[H][C@@]12CCCO[C@]1([H])[C@H](NC(=O)CC1CC1)CN(Cc1csc(C)n1)C2 | A: -14.22%; B: 1.756% & -3.439%
* COc1ccc(CC(C)(O)CNC(=O)NCc2cccs2)cc1 (centres undefined) | A: -9.309%; B: -6.9%
* COc1cc(N2CCN(Cc3ccc(C)o3)C(CCO)C2)nc(N)n1 (centres undefined) | A: 3.414%; B: -11.49% & -5.408%
* Cc1cnc(CNC(=O)c2cc3c(s2)CCN3S(C)(=O)=O)cn1 | A: 15.94%; B: 4.883% & -7.395%
* Cn1cnnc1CN1CCC2(CCCN(C3CCCCC3)C2=O)C1 (centres undefined) | A: 29.22%; B: 12.04%
* CN(C)[C@H]1CCCCN(Cc2cnc(NCc3ccccc3)nc2)C1 | A: 7.496%; B: 19.84%
* c1cncc(NCCNC2CCSCC2)c1 | A: -9.554%; B: -19.18%
* CCOc1nnc(CN2CCN(CCOC)C(C)C2)s1 (centres undefined) | A: -18.72% & -6.839%; B: -6.827%
* Cc1nn(C)c(Cl)c1C1CCCN1Cc1nnc(C2CC2)o1 (centres undefined) | A: -19.36%; B: -12.81%
* Cc1cc(C2CCCCN2C(=O)CN2C(=O)OC(C)(C)C2=O)no1 (centres undefined) | A: -19.83%; B: -8.415%
* O=C(NCCNc1cnccn1)N1CC=C(c2ccccc2)CC1 | A: -9.533%; B: 0.7042%
* c1ccc(Cc2noc(-c3ccc(NCC4CCCOC4)nc3)n2)cc1 (centres undefined) | A: 16.93%; B: 15.47%
* Cl.Nc1ccc(-c2cnc(C3CCCN3)cn2)cn1 (centres undefined) | A: -0.1868% & 14.12%; B: 8.63%
* Cc1ncsc1CCN(C)C(=O)CN1CCCCC1=O | A: -15.75%; B: -33.11%
* COc1cc(C#N)ccc1OCC(=O)NS(=O)(=O)c1cccnc1 | A: 12.37%; B: 5.307%
* CNC(=O)NC(=O)C(C)N1CCCc2cc(OC)ccc2C1 (centres undefined) | A: 7.325%; B: 21.13%
* Fc1ccc(-c2nc(CN3CCOC(Cn4cccn4)C3)co2)cc1 (centres undefined) | A: 6.265%; B: 25.65%
* COCCCNC(=O)C(C)(C)N(C)C1CCCC1 | A: 4.414%; B: 7.219%
* Cn1cc(NC(=O)CNC(=O)N2CCN(c3ccc(F)cc3)CC2)cn1 | A: -1.1%; B: 2.236% & 0.08749%
* CC(C)c1ccc(CNC(C)c2ccc(S(C)(=O)=O)cc2)cc1 (centres undefined) | A: 21.4%; B: 6.649%
* O=C(O)C(F)(F)F.O=C(O)C(F)(F)F.[H][C@@]12CN(Cc3cccnc3)C[C@]1([H])[C@H](OC)CCN2S(=O)(=O)N(C)C | A: -7.179%; B: -6.756% & -12.97%
* COc1ccc(Cc2ncc3c(n2)CN(C(=O)C(C)(C)OC)C3)cc1 | A: 2.647%; B: -2.052%
* CCS(=O)(=O)N1Cc2ncn(CC3CC3)c2C(COC)C1 (centres undefined) | A: -10.69%; B: -12.87%
* O=C(C1CC(=O)N(C2CC2)C1)N1CCC(Oc2ccccc2Cl)CC1 (centres undefined) | A: 3.052% & -0.6494%; B: 0.468%
* Cc1ccccc1N1CCN(C(=O)c2ccc[nH]2)C(C)C1 (centres undefined) | A: 0.9876%; B: 25.37%
* [H][C@]12CC[C@]([H])(CN(Cc3cccnc3)C1)N(C(=O)CCc1cnn(C)c1)C2 | A: -10.86%; B: -40.17%
* [H][C@@]12COC[C@]1(c1nc(C)no1)CN(S(=O)(=O)N(C)C)C2 | A: -2.275%; B: -5.301% & -11.39%

The first 5 entries again:

SMILES	A	B
[H][C@]12CN(CC=C(C)C)C[C@@]1(C(=O)O)CN(C(=O)c1cnccc1C)C2	0.04553%	10.08%
Cc1nn(C)c(C)c1C1CCCN1Cc1nc2ccccc2n1C (centres undefined)	-10.65%	2.771%
CCN(Cc1noc(C)n1)C(=O)C(c1ccc(C)cc1)N(C)C (centres undefined)	-8.548%	0.6293%
CN1CCC(C(=O)N2CCN(Cc3cccc(Cl)c3)CC2)CC1=O (centres undefined)	4.979%	7.753%
Cl.c1ccc(CNc2cc(C3CCCNC3)ccn2)nc1 (centres undefined)	-6.115% & -32.31%	-45.83%

Measurements from “University of Dundee, Small-Polar-MMV Screening Library” (2021), ChEMBL document CHEMBL3988442.